Results are given in words; binding and its absence hold for the method and conditions named. Binding seen in cells or lysates may run through a third protein. A yes stands for co-enrichment or nearness to the bait. Other partners may have been found.

This assay has as its target T1, TGFBR3 (mouse (in primary FAPs from C57BL/6 mice)) (UniProt O88393).
T1 sequence: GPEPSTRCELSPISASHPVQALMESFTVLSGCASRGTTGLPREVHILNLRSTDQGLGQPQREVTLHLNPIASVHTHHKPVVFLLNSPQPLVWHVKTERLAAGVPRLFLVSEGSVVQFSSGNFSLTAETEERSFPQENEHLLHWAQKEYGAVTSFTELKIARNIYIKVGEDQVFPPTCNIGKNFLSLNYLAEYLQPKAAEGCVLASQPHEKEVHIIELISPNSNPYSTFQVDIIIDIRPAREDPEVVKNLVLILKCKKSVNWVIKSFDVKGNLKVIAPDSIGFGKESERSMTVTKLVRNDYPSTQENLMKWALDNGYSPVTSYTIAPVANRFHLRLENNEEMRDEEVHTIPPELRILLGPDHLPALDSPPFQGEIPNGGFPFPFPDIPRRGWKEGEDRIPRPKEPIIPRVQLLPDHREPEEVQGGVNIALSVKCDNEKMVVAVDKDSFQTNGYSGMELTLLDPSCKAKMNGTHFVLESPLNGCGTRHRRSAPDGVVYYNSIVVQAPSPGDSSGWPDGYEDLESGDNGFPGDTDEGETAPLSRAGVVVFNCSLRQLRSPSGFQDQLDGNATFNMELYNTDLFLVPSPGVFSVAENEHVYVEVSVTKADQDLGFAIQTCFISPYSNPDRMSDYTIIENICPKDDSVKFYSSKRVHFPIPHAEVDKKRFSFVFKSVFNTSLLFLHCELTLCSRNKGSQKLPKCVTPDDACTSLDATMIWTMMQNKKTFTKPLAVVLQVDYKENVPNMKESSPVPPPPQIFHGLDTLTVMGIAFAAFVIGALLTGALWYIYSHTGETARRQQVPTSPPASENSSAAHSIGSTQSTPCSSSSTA
The assay can be described thus: affinity purification with mass spectrometry; CoIP of TGFBR3 from FAPs followed by LC-MS to screen for candidates that bind TGFBR3.

B1: KRT10 (protein, UniProt P02535 1-570)
chain: MSVLYSSSSKQFSSSRSGGGGGGGSVRVSSTRGSLGGGYSSGGFSGGSFSRGSSGGGCFGGSSGGYGGFGGGGSFGGGYGGSSFGGGYGGSSFGGGYGGSSFGGAGFGGGGSFGGGSFGGGSYGGGFGGGGFGGDGGSLLSGNGRVTMQNLNDRLASYMDKVRALEESNYELEGKIKEWYEKHGNSSQREPRDYSKYYKTIEDLKGQILTLTTDNANVLLQIDNARLAADDFRLKYENEVTLRQSVEADINGLRRVLDELTLSKSDLEMQIESLNEELAYLKKNHEEEMRDLQNVSTGDVNVEMNAAPGVDLTQLLNNMRNQYEQLAEKNRKDAEEWFNQKSKELTTEIDSNIEQMSSHKSEITELRRTVQGLEIELQSQLALKQSLEASLAETEGRYCVQLSQIQSQISALEEQLQQIRAETECQNAEYQQLLDIKTRLENEIQTYRSLLEGEGSSSGGGGGRRGGSGGGSYGGSSGGGSYGGSSGGGGSYGGSSGGGGSYGGGSSGGGSHGGSSGGGYGGGSSSGGAGGHGGSSGGGYGGGSSSGGQGGSGGFKSSGGGDQSSKGPRY
On to B1, for which the binding entry is on record as “binds”.

(Values after PMC12800062.)
